PubChem BioAssay AID2685 (National Center for Advancing Translational Sciences (NCATS), 2010)
The other results are listed elsewhere or left out. The main result of the screen is listed elsewhere. These columns were measured beside it and carry no call. The list favours compounds with an active or inconclusive main result. The note in brackets gives the kind of curve behind each potency; many fits are weak.

Assay: qHTS Assay for Lipid Storage Modulators in Drosophila S3 Cells;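 as to cell number change: cells counted by Cell Tracker Red CMTPX staining in the red channel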
Conditions: BODIPY lipid droplet fluorescence, 18-24 h; for cell number change: measured here: cell count max response, cells fed with added oleic acid
Summary of the method: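 Laser-scanning cytometry quantifies lipid droplet accumulation (500–530 nm total intensity; droplet/cell object ratio) in oleic acid-fed (400 uM added) Drosophila S3 cells treated with a concentration series. 20 uM Triacsin C defined 100% inhibition.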

[1] = measured here: cell number channel AC50, cells fed with added oleic acid
[2] = measured here: lipid fluorescence (Fed channel) AC50, cells fed with added oleic acid

## CCCCCOc1ccc(NC(=O)CCCC(=O)O)cc1
  cell number change: -7.68%
[1]
  AC50: 1.3 µM [falling, partial curve]
[2]
  AC50: 1.46 µM [falling, partial curve]

## Cc1cc(C)cc(OCC(=O)Nc2ccccc2C(=O)N2CCOCC2)c1
  cell number change: -14.1%
[2]
  AC50: 29.1 µM [falling, single point]

## COc1cc(/C=C(/C#N)c2nc3ccccc3[nH]2)ccc1OCc1ccc(C(=O)O)o1
  cell number change: 3.33%
[2]
  AC50: 4.11 µM [rising, full curve, poor fit]

## COc1ccc(C(=O)Nc2ccc(S(=O)(=O)Nc3cc(C)nc(C)n3)cc2)c(OC)c1
  cell number change: -15.7%
[2]
  AC50: 20.6 µM [rising, single point]

## CCCCNCCCOc1cccc(Cl)c1
  cell number change: -8.67%
[2]
  AC50: 25.9 µM [falling, partial curve]

## CCCn1c(SCC(=O)NNC(=O)c2ccc(OC)cc2)nnc1C(C)C
  cell number change: 19.2%
[2]
  AC50: 1.16 µM [rising, single point]

## O=C(N/N=C/c1ccc(-c2ccc(Br)cc2)o1)c1ccc2c(c1)OCO2
  cell number change: 19.5%
[1]
  AC50: 1.84 µM [rising, partial curve, poor fit]

## CC(Cc1cccs1)NC(=S)Nc1ccc(Cl)cc1 (configuration not stated)
[2]
  AC50: 29.1 µM [falling, single point]

## O=C(Cn1nc(Cl)nc1Cl)c1cc2ccccc2oc1=O
  cell number change: -27.5%
[2]
  AC50: 16.4 µM [rising, single point]

## O=C(c1ccccc1)N1CCCC(c2nc3c(nnn3Cc3ccccc3)c(=O)[nH]2)C1 (configuration not stated)
[2]
  AC50: 29.1 µM [rising, single point]

## Cc1ccc(S(=O)(=O)N(C)c2ccc(C(=O)NCCc3ccccc3)cc2)cc1
[2]
  AC50: 29.1 µM [falling, single point]

## CCOC(=O)CCCNC(=O)CSc1nnc(-c2ccccc2)c(-c2ccccc2)n1
  cell number change: 9.91%

## CC1c2c([nH]c3ccccc23)CCC1C(=O)O (configuration not stated)
  cell number change: -52.7%
[1]
  AC50: 29.1 µM [falling, single point]
[2]
  AC50: 0.58 µM [falling, full curve, poor fit]

## COc1ccc(-c2nnn(CCc3nn[nH]n3)n2)cc1OC
  cell number change: -57.6%
[1]
  AC50: 29.1 µM [falling, single point]

## CCOC(=O)N1CCC(NC(=O)Cn2cccc2C(=O)c2ccccc2)CC1
  cell number change: -45.9%
[1]
  AC50: 20.6 µM [falling, single point]

## COc1cc(OC)c(NC(=O)C2CCN(S(=O)(=O)c3ccc4c(c3)CC(C)N4C(C)=O)CC2)cc1Cl (configuration not stated)
  cell number change: 21.8%

## Cc1ccc(N(C(=O)c2csnn2)C(C(=O)NC2CCCCC2)c2cccnc2)cc1 (configuration not stated)
  cell number change: -14.3%
[2]
  AC50: 4.11 µM [rising, partial curve]

## CCOc1ccc(Oc2c(/C=N/NC(N)=O)c(C)nn2-c2ccccc2)cc1
[2]
  AC50: 5.8 µM [rising, partial curve]

## Cc1ccccc1NC(=S)NCc1cccn1C
  cell number change: -24.1%
[1]
  AC50: 0.184 µM [falling, full curve, poor fit]

## CCOC(=O)C(=CNc1ccccc1C)C(=O)OCC
[1]
  AC50: 6.51 µM [rising, single point]

## CCCCCCSc1ccc([C@@H]2[C@H]3C(=O)N(CC)C(=O)[C@H]3[C@]3(C(=O)OC)CCCN23)cc1
[2]
  AC50: 2.31 µM [falling, single point]

## O=C(CCN1C(=O)/C(=C\c2cccs2)SC1=S)Nc1ccc(C(=O)O)cc1
  cell number change: 22.7%

## COc1ccc(O)c(C(=O)c2cnc3onc(C(C)C)c3c2)c1
  cell number change: -10.3%
[2]
  AC50: 0.058 µM [falling, partial curve, poor fit]

## O=C(NC1CCCc2ccccc21)c1ccc(S(=O)(=O)N2CCOCC2)cc1 (configuration not stated)
  cell number change: 10%
[1]
  AC50: 0.116 µM [falling, full curve, poor fit]
[2]
  AC50: 0.58 µM [falling, full curve]

## COC(=O)c1ccc(NC(=S)N2CCN(C)CC2)cc1
  cell number change: -9%
[1]
  AC50: 0.731 µM [falling, partial curve]

## CNC(=O)c1c(NC(=O)c2ccc(S(=O)(=O)N3CCCCC3C)cc2)sc2c1CCN(C)C2 (configuration not stated)
  cell number change: 7.5%
[1]
  AC50: 1.84 µM [falling, partial curve]
[2]
  AC50: 2.31 µM [falling, partial curve]

## CCOc1cc(/C=C2/C(=N)N3C(=NC2=O)SN=C3S(C)(=O)=O)ccc1OC(=O)c1ccco1
[2]
  AC50: 6.51 µM [falling, single point]

## COc1ccc(N2Cc3cccc(C(=O)N4CCOCC4)c3C2=O)cc1
  cell number change: -7.72%

## CC(C)c1cc(C(=O)Nc2cccc(Cl)c2)no1
  cell number change: -4.46%
[2]
  AC50: 6.51 µM [rising, partial curve]

## CCOC(=O)c1[nH]c(C)c(C(=O)Nc2cc(OC)ccc2OC)c1C
  cell number change: 99.8%
[1]
  AC50: 18.4 µM [rising, single point]
[2]
  AC50: 18.4 µM [rising, single point]

## CCC(C)NS(=O)(=O)c1ccc(OCC(=O)NCc2ccco2)cc1 (configuration not stated)
  cell number change: -12.4%
[2]
  AC50: 14.6 µM [rising, partial curve]

## COC(=O)c1ccc(N/C=C/C(=O)c2ccccc2)cc1
  cell number change: 11.4%
[2]
  AC50: 4.11 µM [rising, single point]

## O=[N+]([O-])c1cc(/C=N/O)ccc1SCc1ccccc1
  cell number change: 6.82%
[2]
  AC50: 29.1 µM [rising, single point]

## COC(=O)c1cc(=O)n(CCc2ccc(OC)c(OC)c2)c(=Nc2ccc(F)c(Cl)c2)s1
  cell number change: -26.5%
[2]
  AC50: 16.4 µM [falling, partial curve]

## O=S(=O)(c1cccc(C(F)(F)F)c1)N1CCN(c2ccccc2)CC1
  cell number change: 24.4%
[2]
  AC50: 29.1 µM [rising, single point]

## CCN(CC(=O)Nc1ccc(N2CCOCC2)cc1)C(=O)c1ccc(C(F)(F)F)cc1
[1]
  AC50: 0.82 µM [falling, full curve]

## O=C(NCCc1ccc(Cl)cc1)c1ccc2nc(N3CCOCC3)sc2c1
  cell number change: -10.2%

## COc1ccc(CNC(=O)/C=C/c2cc([N+](=O)[O-])ccc2OC(F)F)cc1OC
  cell number change: 9.18%
[2]
  AC50: 2.31 µM [falling, partial curve]

## COc1ccc(Cl)cc1NC(=O)CN1CCC(n2nnc3cc(C)ccc32)CC1
  cell number change: 3.52%

## Cc1cccc(-c2nc(-c3ccncc3)no2)c1
  cell number change: -3.57%
[2]
  AC50: 5.8 µM [rising, partial curve]

## COC(=O)Nc1ccc(S(=O)(=O)N2CCCC(C(=O)N3CCN(C)CC3)C2)cc1 (configuration not stated)
  cell number change: 21.6%
[2]
  AC50: 29.1 µM [rising, single point]

## CC(C)OC(=O)CC(=O)CSc1nc2c(cc1C#N)CCC2
  cell number change: -1.7%
[1]
  AC50: 0.00461 µM [falling, full curve, poor fit]
[2]
  AC50: 7.31 µM [rising, partial curve]

## COC(=O)NC1c2ccccc2Oc2ccc(C)cc21 (configuration not stated)
  cell number change: 14.2%

## CC(C)Cc1nc2oc3c(Cl)ncnc3c2c2c1CCC2
  cell number change: 47.8%
[1]
  AC50: 0.206 µM [rising, partial curve]
[2]
  AC50: 6.51 µM [falling, single point]

## O=C(NCCN1CCCC1=O)Nc1ccccc1
  cell number change: -10.1%

## CCNC(=S)NCCN1CCCCC1
  cell number change: 1.38%
[2]
  AC50: 0.58 µM [falling, full curve]

## CCC(O)(c1ccccc1)C(CN1CCOCC1)c1ccccc1 (configuration not stated)
  cell number change: -11.1%

## CC(=O)Nc1ccc(S(=O)(=O)N/N=C/c2cccnc2)cc1
  cell number change: 12.2%

## CNc1nc(N/N=C/c2ccc([N+](=O)[O-])cc2)nc(Nc2ccccc2)n1
  cell number change: 7.72%
[2]
  AC50: 20.6 µM [falling, partial curve, poor fit]

## COc1cc(C(=O)N2CCN(C(=O)c3ccccc3)CC2)cc(OC)c1OC
  cell number change: 156%
[1]
  AC50: 18.4 µM [rising, partial curve]

## Cc1ccc(NC(=S)NN2CCN(C)CC2)c(C)c1
  cell number change: 2.9%
[2]
  AC50: 25.9 µM [rising, single point]

## CCOC(=O)c1c(NC(=S)NC(=O)c2ccco2)sc2c1CCCC2
  cell number change: 1.93%

## Cc1ccnc(NS(=O)(=O)c2cc(C(F)(F)F)ccc2Cl)c1
  cell number change: 32.4%
[1]
  AC50: 0.58 µM [falling, single point]
[2]
  AC50: 29.1 µM [rising, single point]

## CCn1c(C(C)NC(=O)c2cccs2)nc2ccccc21 (configuration not stated)
  cell number change: 80.2%
[1]
  AC50: 25.9 µM [rising, single point]

## CN(C1CCCCC1)S(=O)(=O)CCNC(=O)c1ccccc1
  cell number change: 13%
[2]
  AC50: 0.13 µM [falling, full curve, poor fit]

## COC(=O)C1CCN(C(=O)CSc2nc3ccc(OC)cc3[nH]2)CC1
  cell number change: 37.6%
[1]
  AC50: 0.146 µM [rising, full curve, poor fit]
[2]
  AC50: 0.291 µM [rising, partial curve, poor fit]

## Cc1cc2nc(C)n(CCCNC(=O)Nc3ccc(F)cc3)c2cc1C
[2]
  AC50: 0.326 µM [rising, partial curve, poor fit]

## CC(=O)N1CCc2cc(S(=O)(=O)NC(Cc3ccccc3)C(=O)Nc3cc(C)ccn3)ccc21 (configuration not stated)
  cell number change: -1.46%

## CCOC(=O)C(N)CSC1CC(=O)N(c2ccc(OC)cc2)C1=O (configuration not stated)
[2]
  AC50: 2.31 µM [falling, partial curve]

## COc1ccc(C2=NS(=O)(=O)N(C)C(C(=O)NC3CCCC3)=C2)cc1
  cell number change: 18.2%

## CCCCC(CC)C(=O)Nc1cc(C(=O)NCc2ccc(C)cc2)ccc1N1CCC2(CC1)CC(c1cccc(Br)c1)=NO2 (configuration not stated)
  cell number change: 23.1%
[2]
  AC50: 2.06 µM [rising, partial curve, poor fit]

## Cc1cccc(N2CCC(N3CCN(C4CCCCC4)C(CCO)C3)CC2)c1C (configuration not stated)
  cell number change: -22.5%

## O=C(COC(=O)c1ccc(Cl)nc1)Nc1cccc(S(=O)(=O)N2CCCCC2)c1
  cell number change: -27.4%
[1]
  AC50: 6.51 µM [falling, single point]
[2]
  AC50: 3.66 µM [falling, partial curve, poor fit]
